# Assay results reported in PubChem BioAssay (NCATS).
# Inconclusive means that the source gave no clear call. Such entries were picked first, then a sample of the others. Potencies beside an inconclusive call are fits to weak or partial responses and may not hold up. Calls of active or inactive are those of the source. Calls follow the shape of the dose curve; as a rule, active = well fitted cell-killing curve with a large enough effect; inconclusive = small, poorly fitted or top-dose-only effect, or effect the other way; inactive = no such curve, though single readings can be large or run the other way.
# Test: Quantitative High-Throughput drug screen in 47 multiple myeloma cell lines against the NCATS MIPE library collection: KMS27_JCRB cell viability assay (AID 1918970); also: nearly all actives have a fitted effect of over 30% in size
# Details: KMS27 myeloma cells, CellTiter-Glo ATP viability, 48 h; series mostly up to 45.8 µM
# Outline: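 Each line is seeded at 500 cells per well and treated with library compounds for 48 hours under 37 °C, 5% CO2. CellTiter-Glo is then added for 5 min at room temperature before median relative luminescence is recorded.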
# Potency is read from the fitted curve at half-maximal effect.
row,SMILES,Potency
1,COc1ccc(OC)c(-c2nnc3ccc(-c4ccc(OC)c(O[C@@H]5CCOC5)c4)nn23)c1,active: 8.33 µM
2,CC(C)(Sc1ccc(CCN(CCCCC2CCCCC2)C(=O)NC2CCCCC2)cc1)C(=O)O,inactive
3,COc1cc(-c2nn(C3CCC(N4CCN(C(C)=O)CC4)CC3)c3ncnc(N)c23)ccc1NC(=O)c1cc2ccccc2n1C (stereo unspecified),"inconclusive: 0.296 µM [cytotoxic, full curve, poor fit]"
4,N#CC(=C(N)Sc1ccc(N)cc1)c1ccccc1C(F)(F)F,inactive
5,CCNC(=O)Nc1ccc(Oc2ncnc(N)c2C=NOC)cc1Cl,"inconclusive: 1.48 µM [cytotoxic, full curve, poor fit]"
6,COc1cc(OC2CCN(C)CC2)ccc1Nc1ncc2c(n1)n(C1CCCC1)c(=O)n2C,active: 20.9 µM
7,Cc1cc(OCCCS(C)(=O)=O)cc(C)c1-c1cccc(COc2ccc3c(c2)OC[C@H]3CC(=O)O)c1,"inconclusive: 4.69 µM [cytotoxic, partial curve, poor fit]"
8,CC1CNc2c(cccc2S(=O)(=O)N[C@@H](CCCN=C(N)N)C(=O)N2CC[C@@H](C)C[C@@H]2C(=O)O)C1 (stereo partly specified),active: 14.8 µM
9,CN1CC(=O)NC1=NC(=O)Nc1cccc(Cl)c1,"inconclusive: 0.0743 µM [cytotoxic, full curve, poor fit]"
10,CN(C)CCN1C(=O)c2cccc3cc(N)cc(c23)C1=O,"inconclusive: 37.2 µM [cytotoxic, single point]"
11,C1=CCOCc2cc(ccc2OCCN2CCCC2)Nc2nccc(n2)-c2cccc(c2)OCC1,active: 1.48 µM
12,Cc1cccc(N(C)C(=S)Oc2ccc3ccccc3c2)c1,"inconclusive: 33.2 µM [cytotoxic, single point]"
13,Nc1nc2c(ncn2COC(CO)CO)c(=O)[nH]1,active: 10.5 µM
14,N#CC[C@H](C1CCCC1)n1cc(-c2ncnc3[nH]ccc23)cn1,"inconclusive: 0.0026 µM [cytotoxic, full curve, poor fit]"
15,CCCCN1CCC(CNC(=O)c2c3n(c4ccccc24)CCCO3)CC1,"inconclusive: 4.18 µM [cytotoxic, full curve]"
16,CC(=O)NCCC(=O)N[C@@H](CCC(N)=O)C(=O)N[C@@H](CO)C(=O)N[C@@H](CCC(N)=O)C(=O)N[C@@H](CCC(N)=O)C(=O)N[C@H](C(=O)N[C@@H](Cc1ccccc1)C(=O)N[C@]1(C)CCCCCCC=CCCC[C@@](C)(C(=O)N[C@@H](CCC(N)=O)C(=O)N[C@@H](CC(N)=O)C(N)=O)NC(=O)[C@H](CC(C)C)NC(=O)[C@H](CC(C)C)NC(=O)[C@@H](CCCNC(=N)N)NC(=O)[C@H](Cc2c[nH]c3ccccc23)NC(=O)[C@H](CC(C)C)NC(=O)[C@H](CC(N)=O)NC1=O)[C@H](C)O,"inconclusive: 0.166 µM [cytotoxic, full curve, poor fit]"
17,Cc1ccc(S(=O)(=O)OCC(=O)Nc2ccc(C(=O)O)c(O)c2)cc1,"inconclusive: 16.6 µM [cytotoxic, partial curve, poor fit]"
18,O=c1c(O)c(-c2ccc(O)cc2O)oc2cc(O)cc(O)c12,"inconclusive: 37.2 µM [rising, single point]"
19,CC(C)NC[C@@H](C(=O)N1CCN(c2ncnc3c2[C@H](C)C[C@H]3O)CC1)c1ccc(Cl)cc1,active: 1.87 µM
20,Cc1c(C(=O)NN2CCCCC2)nn(-c2ccc(Cl)cc2Cl)c1-c1ccc(Cl)cc1,"inconclusive: 26.4 µM [cytotoxic, single point]"
21,NC(=O)c1cnccn1,inactive

# Test: Quantitative High-Throughput drug screen in 47 multiple myeloma cell lines against the NCATS MIPE library collection: KMS12BM_JCRB cell viability assay (AID 1918971); also: nearly all actives have a fitted effect of over 35% in size
# Details: KMS12BM myeloma viability, CellTiter-Glo ATP, 48 h; series mostly up to 45.8 µM
# Outline: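 qHTS of the MIPE 4.0 collection: 500 myeloma cells/well, 48 h drug exposure at 37C in 5% CO2, then CellTiter-Glo for 5 min at room temperature before luminescence reading.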
row,SMILES,Potency
1,CC(C)(Sc1ccc(CCN(CCCCC2CCCCC2)C(=O)NC2CCCCC2)cc1)C(=O)O,"inconclusive: 16.6 µM [cytotoxic, partial curve, poor fit]"
2,NC(=NCCCCCCN=C(N)N=C(N)Nc1ccc(Cl)cc1)N=C(N)Nc1ccc(Cl)cc1,active: 9.35 µM
3,O=C(O)c1ccc(O)c2ncc(N3CCOCC3)cc12,"inconclusive: 23.5 µM [cytotoxic, partial curve, poor fit]"
4,Fc1ccc(Cl)cc1-c1nc(Nc2ccncc2)c2nccnc2n1,"inconclusive: 20.9 µM [cytotoxic, partial curve, poor fit]"
5,COc1cc2c(cc1-c1c(C)noc1C)ncc1[nH]c(=O)n([C@H](C)c3ccccn3)c12,active: 0.833 µM
6,c1ccc([C@H]2CN3CCSC3=N2)cc1,inactive
7,Cc1ccc(-c2ncn(-c3ccc(Nc4nccc(-c5cccc(N6CCOCC6)c5)n4)cc3)n2)cn1,active: 0.0833 µM
8,CC1CNc2c(cccc2S(=O)(=O)N[C@@H](CCCN=C(N)N)C(=O)N2CC[C@@H](C)C[C@@H]2C(=O)O)C1 (stereo partly specified),"inconclusive: 23.5 µM [cytotoxic, partial curve, poor fit]"
9,CN1CC(=O)NC1=NC(=O)Nc1cccc(Cl)c1,"inconclusive: 33.2 µM [cytotoxic, single point]"
10,C1=CCOCc2cc(ccc2OCCN2CCCC2)Nc2nccc(n2)-c2cccc(c2)OCC1,active: 7.43 µM
11,O=C1CCC(N2C(=O)c3ccccc3C2=O)C(=O)N1 (stereo unspecified),active: 18.7 µM
12,Cc1cccc(N(C)C(=S)Oc2ccc3ccccc3c2)c1,inactive
13,C[C@]12CCC(=O)C=C1CC[C@@H]1[C@H]2[C@@H](O)C[C@@]2(C)[C@H]1CC[C@]2(O)C(=O)CO,"inconclusive: 0.0105 µM [rising, full curve, poor fit]"
14,Nc1nc2c(ncn2COC(CO)CO)c(=O)[nH]1,active: 18.7 µM
15,NCCCC(N)(C(=O)O)C(F)F (stereo unspecified),inactive
16,Cc1ccc(S(=O)(=O)OCC(=O)Nc2ccc(C(=O)O)c(O)c2)cc1,"inconclusive: 13.2 µM [cytotoxic, partial curve, poor fit]"
17,CN(C)c1nc(Cc2ccc(NC(=O)c3ccc4ccccc4c3)cc2)nc(Cl)c1CC(=O)O,inactive
18,CCN1CCN(c2ccc(Nc3cc(N(C)C(=O)Nc4c(Cl)c(OC)cc(OC)c4Cl)ncn3)cc2)CC1,active: 16.6 µM
19,NC(=O)c1cnccn1,"inconclusive: 0.0019 µM [rising, full curve, poor fit]"
20,FC(F)c1nc2ccccc2n1-c1nc(N2CCOCC2)nc(N2CCOCC2)n1,active: 1.66 µM
